# Primary screen of a compound library

By UniProt entry, the sequences of proteins in these tests, tags left out.
UniProt E9BF75, entry or part of it: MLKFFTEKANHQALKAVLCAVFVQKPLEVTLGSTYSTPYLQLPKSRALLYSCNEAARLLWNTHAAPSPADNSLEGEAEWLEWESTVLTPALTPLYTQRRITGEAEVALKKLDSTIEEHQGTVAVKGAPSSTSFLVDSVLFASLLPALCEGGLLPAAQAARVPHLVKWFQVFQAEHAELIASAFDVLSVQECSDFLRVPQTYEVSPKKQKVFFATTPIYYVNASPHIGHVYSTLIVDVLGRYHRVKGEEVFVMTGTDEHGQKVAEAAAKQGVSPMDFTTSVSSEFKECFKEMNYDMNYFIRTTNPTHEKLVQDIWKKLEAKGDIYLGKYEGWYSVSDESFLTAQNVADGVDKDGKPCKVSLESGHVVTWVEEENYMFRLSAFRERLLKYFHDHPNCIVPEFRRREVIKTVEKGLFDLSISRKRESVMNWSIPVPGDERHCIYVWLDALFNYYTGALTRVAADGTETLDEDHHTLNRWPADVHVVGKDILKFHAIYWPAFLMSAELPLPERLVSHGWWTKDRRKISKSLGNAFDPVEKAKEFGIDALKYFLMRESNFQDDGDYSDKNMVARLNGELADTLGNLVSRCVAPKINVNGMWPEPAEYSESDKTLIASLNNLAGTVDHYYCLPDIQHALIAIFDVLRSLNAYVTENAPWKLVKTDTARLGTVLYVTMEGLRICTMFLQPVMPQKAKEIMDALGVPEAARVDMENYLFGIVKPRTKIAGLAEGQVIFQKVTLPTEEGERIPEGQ

LdMetRS: 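Primary screen of methionyl-tRNA synthetase; the read-out is not stated. Target: Methionyl-tRNA synthetase (putative), Leishmania donovani (UniProt E9BF75). The test concentration is not given. Values are per cent inhibition. Of about 68,000 compounds tested this way, about 24 (0.035%) reached 50% or more in at least one test.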
Mtb heat-shock: 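Assay on Mycobacterium tuberculosis, filed only as a heat shock assay from Cornell; the read-out is not stated. The concentration is filed as 10 mM, unlikely as a test dose, so the dose is not known. Higher reads as stronger inhibition (inferred: compounds with an IC50 in retests scored well above the rest). Of about 69,000 compounds tested this way, about 930 (1.4%) reached 50% or more in at least one test.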

Results are percentages, as filed. How 0% and 100% were set is not recorded. Most values in the screen are low, and negative values occur. Compounds were drawn at random from those tested, without regard to their results. A dash means the value is not listed here; it may have been measured.

SMILES: NC(=O)C1CCN(C(=O)NCc2csc(Br)c2)CC1
LdMetRS: 16.83%
Mtb heat-shock: -6.997%

SMILES: CCCOCC(=O)NS(=O)(=O)c1ccc2c(c1)OCCCO2
LdMetRS: 2.362%
Mtb heat-shock: 1.933%

SMILES: Cc1nc(NC(=O)N2CCCC(C(F)(F)F)C2)nn1C (stereo not given)
LdMetRS: 22.29%
Mtb heat-shock: 1.261%

SMILES: N#Cc1ccc(CN2CC3(CCCCN3c3cccnc3)CC2=O)cc1.O=C(O)C(F)(F)F (stereo not given)
Mtb heat-shock: 1.705%

SMILES: O=C(CCC1CCCN(C(=O)CCN2CCCCO2)C1)N1CCCC1 (stereo not given)
LdMetRS: 14.89%
Mtb heat-shock: 4.648%

SMILES: Cn1ccnc1CN1CCCN(C(=O)COC2CCCC2)CC1
LdMetRS: 23.78%
Mtb heat-shock: -0.3957%

SMILES: Cc1nc(CN2CCCC(CCc3ccccc3C(F)(F)F)C2)co1 (stereo not given)
LdMetRS: 3.78%
Mtb heat-shock: 17%

SMILES: CC(C)(C(=O)NCCCC(N)=O)c1cccc(Br)c1
LdMetRS: 8.967%
Mtb heat-shock: -13.19%

SMILES: CN(C)C(=O)C1SCCc2ccccc21 (stereo not given)
LdMetRS: 9.511%
Mtb heat-shock: 1.545%

SMILES: Cc1ccc(N2CCCC(N3CCC(N(C)C)CC3)C2=O)cc1 (stereo not given)
LdMetRS: 14.8%
Mtb heat-shock: -11.34%

SMILES: CCCC1COCCN1Cc1ccc(C(=O)O)cc1 (stereo not given)
LdMetRS: 10.45%
Mtb heat-shock: -22.98%

SMILES: COc1cc(C(=O)N2CCCS2(=O)=O)ccc1C
LdMetRS: 8.392%
Mtb heat-shock: -5.657%

SMILES: COc1cccc(OCCNS(C)(=O)=O)c1
LdMetRS: 14.64%
Mtb heat-shock: 9.178%

SMILES: CN(Cc1ccco1)Cc1cnc2n1CCN(c1ccccn1)CC2.O=C(O)C(F)(F)F.O=C(O)C(F)(F)F
Mtb heat-shock: 2.954%

SMILES: CN(C)C(=O)c1ccn(COc2ccccc2Cl)n1
LdMetRS: 7.311%
Mtb heat-shock: -4.135%

SMILES: O=C(NCCCO)c1cc(-c2cc[nH]n2)n2ccccc12.O=C(O)C(F)(F)F
Mtb heat-shock: 4.994%

SMILES: c1ccc2sc(N3CCC4(CCCN4Cc4ncc[nH]4)CC3)nc2c1
LdMetRS: 15.22%
Mtb heat-shock: 10.75%

SMILES: CN1CCOC(CNC(=O)COc2ccc(F)cc2F)C1 (stereo not given)
LdMetRS: 20.2%
Mtb heat-shock: 8.834%

SMILES: [H][C@@]12CCN(C(=O)c3ccc(-c4ccccc4)[nH]3)C[C@@]([H])(CC1)N2C
Mtb heat-shock: 5.823%

SMILES: Cc1csc(C2NC3(CCCC3)C(=O)N2CC2CC2)n1 (stereo not given)
LdMetRS: 6.203%
Mtb heat-shock: -16.38%

SMILES: CCn1nnc(NCc2cc(Br)cc(Br)c2OC)n1
LdMetRS: 10.51%
Mtb heat-shock: 16.47%

SMILES: O=C(O)[C@]12CCCN(Cc3ccncc3)C[C@H]1CN(c1ncccn1)C2
LdMetRS: 5.537%

SMILES: Cn1cc(C(=O)NCc2cn3c(n2)CN(Cc2ccncc2)CC3)cn1
LdMetRS: 11.38%
Mtb heat-shock: 0.1831%

SMILES: CC(Cc1cccc(F)c1)C(=O)NS(=O)(=O)c1ccc(F)cc1 (stereo not given)
LdMetRS: 2.719%
Mtb heat-shock: -136.3%

SMILES: O=C(c1ccsc1)N1C[C@H]2CCC[C@@]2(COCc2cccnc2)C1
LdMetRS: 6.875%

SMILES: Cc1cnc(C(=O)N2C[C@@H](NS(C)(=O)=O)[C@@H]3OCCC[C@@H]32)cn1
LdMetRS: 5.333%

SMILES: CCSc1ccc(NC(=O)NC2CCc3[nH]ncc3C2)cn1 (stereo not given)
LdMetRS: 16.33%
Mtb heat-shock: -17.45%

SMILES: Cc1cc(CN2CCN(C(=O)NCc3cccs3)CC2)no1
LdMetRS: 13.25%
Mtb heat-shock: 8.035%

SMILES: Cc1nn(C)c(N(C)C)c1CNCc1ccc2c(c1)OCO2
LdMetRS: 2.857%
Mtb heat-shock: -1.977%

SMILES: CN1CCN(Cc2c(Cl)ccc(O)c2Cl)CC1C(=O)O (stereo not given)
LdMetRS: 14.02%
Mtb heat-shock: -1.671%

SMILES: CN1CCc2nc3c(c(N)c2C1)CCCN3C
LdMetRS: 20.12%
Mtb heat-shock: 14.71%

SMILES: Cc1noc(C)c1CN1CCC2(CC1)CCN(C(=O)c1cscn1)C2
LdMetRS: 9.343%

SMILES: COc1c(C)cnc(CN2CCC(N(C)C(=O)C3CC3)CC2)c1C
LdMetRS: 19.89%
Mtb heat-shock: -1.055%

For reference, 2 entries once more:

SMILES	LdMetRS	Mtb heat-shock
[H][C@@]12CCN(C(=O)c3ccc(-c4ccccc4)[nH]3)C[C@@]([H])(CC1)N2C	-	5.823%
COc1cc(C(=O)N2CCCS2(=O)=O)ccc1C	8.392%	-5.657%

Source: ChEMBL document CHEMBL3988442, “University of Dundee, Small-Polar-MMV Screening Library” (2021).